Data: article PMC11830769

Sequences of proteins named here, by UniProt entry; tags and fusion partners are left off. A change or cut given only in a name is not applied to a line headed by its entry.
UniProt Q93640: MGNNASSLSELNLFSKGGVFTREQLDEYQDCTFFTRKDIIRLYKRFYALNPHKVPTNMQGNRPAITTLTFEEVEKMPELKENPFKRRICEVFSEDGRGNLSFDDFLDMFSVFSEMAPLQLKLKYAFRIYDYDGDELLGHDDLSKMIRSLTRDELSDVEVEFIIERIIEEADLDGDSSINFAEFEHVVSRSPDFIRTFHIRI

Target: T1, nematode ANOH-1 (Anoctamin-1, C. elegans) with an HA-tag (C. elegans) (UniProt G5EBW3)
T1 sequence: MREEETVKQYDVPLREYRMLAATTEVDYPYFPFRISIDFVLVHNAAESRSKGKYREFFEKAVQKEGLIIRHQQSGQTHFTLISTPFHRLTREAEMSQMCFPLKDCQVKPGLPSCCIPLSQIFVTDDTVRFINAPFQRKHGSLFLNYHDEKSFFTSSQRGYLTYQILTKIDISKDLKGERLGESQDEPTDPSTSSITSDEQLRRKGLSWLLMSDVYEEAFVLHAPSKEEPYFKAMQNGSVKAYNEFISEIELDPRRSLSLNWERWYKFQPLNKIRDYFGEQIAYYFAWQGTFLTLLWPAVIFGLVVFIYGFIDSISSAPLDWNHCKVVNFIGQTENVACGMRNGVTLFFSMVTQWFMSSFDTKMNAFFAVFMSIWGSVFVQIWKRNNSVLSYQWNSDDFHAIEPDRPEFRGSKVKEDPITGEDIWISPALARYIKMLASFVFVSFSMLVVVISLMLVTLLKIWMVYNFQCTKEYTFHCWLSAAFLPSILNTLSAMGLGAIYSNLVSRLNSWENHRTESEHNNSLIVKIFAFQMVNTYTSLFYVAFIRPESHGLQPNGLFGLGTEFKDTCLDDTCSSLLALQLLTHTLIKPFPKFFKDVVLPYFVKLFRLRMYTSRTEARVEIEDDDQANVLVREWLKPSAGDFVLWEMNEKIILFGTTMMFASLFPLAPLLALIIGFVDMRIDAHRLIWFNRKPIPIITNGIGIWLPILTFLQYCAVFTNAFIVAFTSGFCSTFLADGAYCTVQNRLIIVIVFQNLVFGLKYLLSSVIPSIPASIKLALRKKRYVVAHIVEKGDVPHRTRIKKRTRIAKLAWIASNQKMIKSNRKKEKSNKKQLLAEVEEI
Experiment: co-IP; transfected HEK293T cells lysed in TAP buffer (20 mM Tris-HCl pH 7.5, 150 mM NaCl, 0.5% NP-40, 1 mM EDTA); supernatant incubated with anti-HA agarose affinity gel 4 h at 4 °C; beads washed 3 times with TAP buffer; SDS-PAGE and immunoblot

For nematode CALM-1 (from UniProt Q93640), the binding was “binds”.

No constants are given. Whether binding was seen depends on the method and setting. Binding seen in cells or lysates may run through a third protein. Binding can be weak; no strength is given. Sequences can lack the tags named with a protein.
